Drawing on patent US20240409647A1, “BISPECIFIC BINDING PROTEINS AGAINST ALARMINS AND USES THEREOF” (SINOMAB BIOSCIENCE LIMITED, priority 2022, published 2024), this text covers binding for one molecule.

The target of assay [1] is human IL-17RB protein (recombinant, R&D systems) (human). Briefly: ELISA, coated antigen 2 µg/mL, binder at 33.5 nM. In general terms: In an ELISA, binding on a coated surface is turned into a signal by an enzyme label.
The target is the same in assay [2]. Briefly: ELISA, coated IL-17RB.

No constants are given. Whether binding was seen depends on the method and setting. Binding can be weak; no strength is given.

B1: SM17 (antibody, human IgG4 S228P, kappa, V domains shown)
VH: QVQLVQSGAEVKKPGASVKVSCKASGYTFISYWMNWVRQAPGQGLEWMGRIDPYDSEIQYNQKFKDRVTMTRDTSISTAYMELSRLRSDDTAVYYCARSGGFDWFAYWGQGTLVTVSS
VL: DIQMTQSPSSLSASVGDRVTITCRASENINSNLAWYQQKPGKAPKLLLYDVTNLADGVPSRFSGSGSGTDYTLTISSLQPEDFATYYCQHFWGPPYTFGGGTKVEIKR
Turning to B1, the binding entry in assay [1] and in assay [2] was “binds” each time.
